# Library screening results

Amino acid sequences for entries named in this document (tags omitted).
UniProt E9BF75, entry or part of it: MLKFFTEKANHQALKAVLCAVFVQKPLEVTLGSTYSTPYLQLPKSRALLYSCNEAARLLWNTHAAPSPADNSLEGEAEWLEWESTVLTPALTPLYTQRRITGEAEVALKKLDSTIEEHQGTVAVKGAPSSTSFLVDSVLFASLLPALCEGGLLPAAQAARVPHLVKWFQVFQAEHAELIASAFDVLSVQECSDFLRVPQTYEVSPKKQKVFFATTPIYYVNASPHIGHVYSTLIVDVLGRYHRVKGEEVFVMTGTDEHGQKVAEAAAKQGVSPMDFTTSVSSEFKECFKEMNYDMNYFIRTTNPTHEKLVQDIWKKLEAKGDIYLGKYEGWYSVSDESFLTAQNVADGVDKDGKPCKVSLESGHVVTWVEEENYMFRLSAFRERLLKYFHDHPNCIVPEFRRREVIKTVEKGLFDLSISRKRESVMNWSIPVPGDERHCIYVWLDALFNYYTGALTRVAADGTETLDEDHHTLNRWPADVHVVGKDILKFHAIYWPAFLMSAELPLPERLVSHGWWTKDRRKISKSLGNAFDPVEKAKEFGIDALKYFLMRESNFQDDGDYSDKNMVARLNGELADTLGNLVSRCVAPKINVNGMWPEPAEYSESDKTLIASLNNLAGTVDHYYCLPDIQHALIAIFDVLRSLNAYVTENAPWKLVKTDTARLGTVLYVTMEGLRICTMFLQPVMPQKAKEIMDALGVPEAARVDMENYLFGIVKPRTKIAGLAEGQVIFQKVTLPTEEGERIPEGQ

Data taken from ChEMBL document CHEMBL3988442, “University of Dundee, Small-Polar-MMV Screening Library” (2021).

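Primary screen of methionyl-tRNA synthetase; the read-out is not stated. Target: Methionyl-tRNA synthetase (putative), Leishmania donovani (UniProt E9BF75). The test concentration is not given. Values are per cent inhibition. Size under these conditions: about 68,000 compounds, about 24 of them at 50% or above in at least one test.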

Results are percentages, as filed. The record does not define 0% and 100%; most values in the screen are far below 50% and negative numbers occur (in some assays of this library far below -100). Compounds were drawn at random from those tested, without regard to their results.

| SMILES | inhibition |
|---|---|
| `CCOc1ccc(OCc2nccc(-c3cc(C(=O)O)ccn3)n2)cc1` | 9.51 |
| `Cc1cnc(NC(C)Cc2cccnc2)nc1N(C)C` (centres undefined) | 5.415 |
| `CCC(CO)NCc1ccc(-c2ccc(Br)cc2)o1` (centres undefined) | 24.74 |
| `COc1cc(N2C[C@H]3CN(Cc4ccccn4)C[C@H]3C2)ncn1` | 16.62 |
| `COc1ccc(CN2C[C@@H]3COC[C@@H](CC(=O)N4CCCC4)[C@@H]3C2)cc1` | 11.82 |
| `Cc1nc(C)n(CC2CCCCN2CCc2ccncc2)n1` (centres undefined) | 8.421 |
| `Cc1cnc(N2C[C@@H]3[C@@H](C(=O)NCC(C)C)CCS(=O)(=O)[C@@H]3C2)nc1` | 0.6849 |
| `COCC1CCCN(C(=O)c2cc(Cn3ccc4ccccc43)[nH]n2)C1` (centres undefined) | 22.05 |
| `O=C(c1cccc(-n2cccn2)c1)N1CCCOC(Cn2cccn2)C1` (centres undefined) | 6.923 |
| `Cn1cc(C(=O)N2CCCC(CN3CCCC3=O)C2)cn1` (centres undefined) | 13.35 |
| `CCC(O)CN1CCN(C(=O)c2sccc2OC)CC1` (centres undefined) | 12.89 |
| `COCc1n[nH]/c(=N\C(=O)c2c3c(nc4onc(C)c24)CCC3)s1` | 15.45 |
| `CC(C)OCCCNC(=O)CN1CCN(c2nccs2)C(C)C1` (centres undefined) | 1.084 |
| `Cn1cc(CN2CC[C@H]3OCC[C@@H](C(=O)N4CCCCO4)[C@@H]3C2)cn1` | 12.86 |
| `CC1c2ncc(CN3CCN(C)CC3)n2CCN1Cc1cnn(C)c1` (centres undefined) | 5.076 |
| `CC(CCc1ccccc1)NC(=O)CN1CCOCC1` (centres undefined) | 9.524 |
| `COc1cc(C)sc1C(=O)N1CCCCC1c1ccccn1` (centres undefined) | 14.37 |
| `Cc1ccc(CNC(=O)NC(C)Cn2cccn2)cn1` (centres undefined) | 19.89 |
| `Cc1nnsc1CN1C[C@H]2CC[C@@H]1CN(Cc1ccccc1)C2` | 21.09 |
| `Cc1nc(CNCC2CN(C)CCO2)cs1` (centres undefined) | 9.408 |
| `Cc1sc2nc(CCN)nc(N3CCS(=O)(=O)CC3)c2c1C` | 4.632 |
| `CCN(Cc1ccncc1)S(C)(=O)=O` | 5.222 |
| `O=C1CCCN1Cc1ncn2c1CN(C(=O)Cc1cccs1)CCC2` | 13.2 |
| `CCn1c(C)cc(C(=O)NCc2cccc(NS(C)(=O)=O)c2)c1C` | -0.3484 |
| `COc1ccccc1NC(=O)c1ccc(C)n1C` | 16.49 |
| `CNc1cc2c(nn1)CCN(C(=O)c1coc(Br)c1)C2` | 11.05 |
| `Cc1nn(CCN2CCSCC2)cc1CNCC1CC1` | 15.46 |
| `CCS(=O)(=O)N(C)CCCNCc1c(C)nn(C)c1N(C)C` | 12.72 |
| `CCOCc1ncn2c1CN(C(=O)Nc1cccc(F)c1)CC2` | -7.726 |
| `O=C(c1ccccc1F)N1CCCC1Cn1c(=O)oc2ccccc21` (centres undefined) | 15.7 |
| `CCc1nc(C(=O)N2CCN(C)c3ccccc32)c[nH]1` | 12.24 |
| `CSCCCN1CC[C@@H](NC(=O)c2cnccn2)[C@H](O)C1` | 13.41 |
| `c1cnn(-c2ccc(CN3CCCC(Cn4cncn4)C3)cc2)c1` (centres undefined) | 26.2 |
| `CCOc1cc(CNC(=O)c2cc(-c3ccccn3)no2)ccn1` | 6.597 |
| `CCc1oc(C(=O)NCCNS(C)(=O)=O)cc1CN1CCCC1` | -2.857 |
| `Cc1cccc(C(C(=O)NC(C)(C)CN2CCOCC2)N(C)C)c1` (centres undefined) | 4.954 |
| `O=C(CNc1ccc(OCC2CCOCC2)cc1)NCc1ccco1` | 17.96 |
| `Cc1nnc(CNC(=O)[C@@H]2C[C@H](NC(=O)C(C)(C)C)CN2C)[nH]1` | 8.711 |
| `CCC(CC)C(=O)Nc1ccc2oc(=O)n(CCN(C)C)c2c1` | 2.122 |
| `CC(C)Oc1ncccc1CNC(=O)c1cc(C2CC2)on1` | 10.12 |
| `CCOc1cccnc1C(=O)N1CCCN(c2nc(C)cs2)CC1` | 6.964 |
| `Cc1c(CN2CCCC2(C)C(=O)NC2CCCC2)cnn1C` (centres undefined) | 3.797 |
| `CCC(C)NC(=O)c1cc(S(N)(=O)=O)c(Br)s1` (centres undefined) | 11.56 |
| `O=C(CCn1c(C(F)F)cc2cccnc21)NC1CCCC1` | 17.42 |
| `CNc1ncc2c(n1)CN(Cc1ccc(Cl)cc1)C2=O` | 18.98 |
| `COCCN1C(=O)CC(c2cccnc2)C12CCN(C)CC2` (centres undefined) | 7.792 |
| `CCc1nnc2n1CCN(CC(=O)Nc1cc(C(C)(C)C)nn1C)C2` | 16.33 |
| `CCCn1[nH]cc/c1=N\C(=O)CN1CCC[C@H]1CO` | 2.903 |
| `O=C(NCCCN1CCc2ccccc2C1)c1ccccc1Cl` | 19.94 |
| `Cc1nc(CN2CCCC(N(C)c3cnc4ccccc4n3)C2)no1` (centres undefined) | 13.19 |
| `Cc1nc(CN2CCC3(CCCO3)CC2)c2ccccn12` | -3.093 |
| `Cn1cc(C2CCCN2CCCn2c(=O)oc3ccccc32)cn1` (centres undefined) | 9.044 |
| `CC(Cn1ccnc1)NCc1n[nH]c2c1CCC2` (centres undefined) | 13.77 |
| `CC(C)(C)OC(=O)NCC(=O)NCc1ccc(Cl)s1` | 9.429 |
| `O=C(NC1CC1)[C@H]1[C@@H]2CN(Cc3ccc(-c4ccn[nH]4)s3)C[C@@H]21` | 7.521 |
| `COc1cccc(CC(C)NC(=O)c2ccc(CNC(C)=O)cc2)c1` (centres undefined) | 11.56 |
| `CC(C)c1nccn1C1CCCN(C(=O)c2ccc3[nH]cnc3c2)C1` (centres undefined) | 9.966 |
| `CCn1cc(C(=O)NCCN2CCCc3ccccc32)c(C)n1` | 14.29 |
| `CSc1ccc2cc(CN(C)CCO)c(=O)[nH]c2c1` | 8.711 |
| `Cc1ccsc1-c1nccn1CCN(C)S(C)(=O)=O` | 13.77 |
| `Cc1ccc(NC2CCN(C(=O)CCCc3ccccn3)CC2)cc1` | 6.044 |
| `CC(=O)N(C)c1nc(CN2CCCC2c2cnn(C)c2)cs1` (centres undefined) | 14.93 |
| `CCOc1ncccc1NC(=O)c1cccs1` | 13.31 |
| `CCc1nc(CNc2ccc(F)c(F)c2)no1` | 9.946 |
| `OC1(CNCCN2CCCc3ccccc32)CCNC1` (centres undefined) | 19.84 |
| `O=C1NCCN1C1CCN(Cc2nc(-c3ccccc3)no2)CC1` | 19.09 |
| `Cc1nnc2n1CCN(c1nn3cc(C(C)(C)C)nc3s1)C2` | 13.18 |
| `CCCN(CC)C(=O)c1nc2c(n1C)CCN(Cc1ccccc1)C2` | 17.52 |
| `Cn1c(CO)nnc1SCc1c(F)cccc1Br` | 16.03 |
| `Cc1ccc(S(=O)(=O)N[C@H](CO)C(C)C)cc1N(C)C` | -2.801 |
| `N#Cc1cccc(C(=O)N2CC(c3nc(-c4cccnc4)no3)C2)c1` | -0.7194 |
| `Cc1cnccc1-n1nc(C(C)C)nc1CCN(C)S(C)(=O)=O` | 5.986 |
| `CN(C)S(=O)(=O)N1C[C@H](Oc2cccnc2)[C@H]2OCCC[C@H]21` | 6.863 |
| `COCCNC(=O)Cn1cc(NC(=O)c2cccc(Cl)c2Cl)cn1` | 13.43 |
| `CN1CC2(CCCN(C(=O)Cc3cccc(O)c3)C2)OC1=O` (centres undefined) | 12.04 |
| `Oc1cc(C2CCCN(Cc3cccs3)C2)nc(-c2ccccn2)n1` (centres undefined) | 18.02 |
| `Cn1ncc2c(N3CCC(F)(F)CC3)nc(-c3ccncc3)nc21` | 19.27 |

8 of the entries, repeated:

| SMILES | inhibition |
|---|---|
| `CC(Cn1ccnc1)NCc1n[nH]c2c1CCC2` (centres undefined) | 13.77 |
| `CCOc1cc(CNC(=O)c2cc(-c3ccccn3)no2)ccn1` | 6.597 |
| `COc1cccc(CC(C)NC(=O)c2ccc(CNC(C)=O)cc2)c1` (centres undefined) | 11.56 |
| `Cn1cc(CN2CC[C@H]3OCC[C@@H](C(=O)N4CCCCO4)[C@@H]3C2)cn1` | 12.86 |
| `Cn1ncc2c(N3CCC(F)(F)CC3)nc(-c3ccncc3)nc21` | 19.27 |
| `CCC(CO)NCc1ccc(-c2ccc(Br)cc2)o1` (centres undefined) | 24.74 |
| `Cn1cc(C(=O)N2CCCC(CN3CCCC3=O)C2)cn1` (centres undefined) | 13.35 |
| `COCC1CCCN(C(=O)c2cc(Cn3ccc4ccccc43)[nH]n2)C1` (centres undefined) | 22.05 |